In this test the target is T1, Smaug (Smg) (Drosophila (endogenous in adult thoraxes)) (UniProt Q23972).
T1 sequence: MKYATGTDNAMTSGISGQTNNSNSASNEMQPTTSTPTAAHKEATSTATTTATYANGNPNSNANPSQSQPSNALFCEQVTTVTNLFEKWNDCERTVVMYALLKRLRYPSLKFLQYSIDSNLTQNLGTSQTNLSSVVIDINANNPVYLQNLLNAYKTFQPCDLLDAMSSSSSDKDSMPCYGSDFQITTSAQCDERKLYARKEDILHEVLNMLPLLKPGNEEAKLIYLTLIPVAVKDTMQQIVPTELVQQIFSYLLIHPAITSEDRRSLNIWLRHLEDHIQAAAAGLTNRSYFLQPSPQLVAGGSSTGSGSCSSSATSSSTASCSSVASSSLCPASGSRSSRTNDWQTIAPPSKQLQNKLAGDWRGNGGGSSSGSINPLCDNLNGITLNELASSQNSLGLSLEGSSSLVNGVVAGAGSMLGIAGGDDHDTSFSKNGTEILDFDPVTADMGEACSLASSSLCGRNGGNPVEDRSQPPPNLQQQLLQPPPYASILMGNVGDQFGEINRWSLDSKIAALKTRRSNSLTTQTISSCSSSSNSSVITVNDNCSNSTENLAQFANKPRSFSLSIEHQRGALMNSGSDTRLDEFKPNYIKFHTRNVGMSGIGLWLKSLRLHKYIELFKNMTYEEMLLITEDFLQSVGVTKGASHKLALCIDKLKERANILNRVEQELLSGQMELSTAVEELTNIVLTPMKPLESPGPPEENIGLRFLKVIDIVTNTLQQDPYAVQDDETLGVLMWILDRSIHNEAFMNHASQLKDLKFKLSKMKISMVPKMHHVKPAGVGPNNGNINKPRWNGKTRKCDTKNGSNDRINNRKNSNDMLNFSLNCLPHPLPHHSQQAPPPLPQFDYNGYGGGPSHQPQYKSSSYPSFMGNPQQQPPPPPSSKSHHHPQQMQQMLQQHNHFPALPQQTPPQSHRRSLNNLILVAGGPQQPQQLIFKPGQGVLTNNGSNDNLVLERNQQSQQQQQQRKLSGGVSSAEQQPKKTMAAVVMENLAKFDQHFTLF
The experiment in a line: co-IP; Smg immunoprecipitation (rabbit anti-Smg; mock IP with rabbit IgG) from UASp-CCR4-HA/Mhc-Gal4 adult thorax extracts, in the presence or the absence of RNase A; western blots with anti-Smg, anti-HA and anti-PABP2.

These are yes or no findings as the source states them, for the method shown. Binding seen in cells or lysates may run through a third protein. A result given as binding can be weak or reduced; the word gives no strength.

Consider CCR4-HA (Drosophila) (enzyme), for which the binding entry is listed as “binds”.
